The target in test [1] is T1, MERTK (human (endogenous in H4006)) (UniProt Q12866).
T1 sequence: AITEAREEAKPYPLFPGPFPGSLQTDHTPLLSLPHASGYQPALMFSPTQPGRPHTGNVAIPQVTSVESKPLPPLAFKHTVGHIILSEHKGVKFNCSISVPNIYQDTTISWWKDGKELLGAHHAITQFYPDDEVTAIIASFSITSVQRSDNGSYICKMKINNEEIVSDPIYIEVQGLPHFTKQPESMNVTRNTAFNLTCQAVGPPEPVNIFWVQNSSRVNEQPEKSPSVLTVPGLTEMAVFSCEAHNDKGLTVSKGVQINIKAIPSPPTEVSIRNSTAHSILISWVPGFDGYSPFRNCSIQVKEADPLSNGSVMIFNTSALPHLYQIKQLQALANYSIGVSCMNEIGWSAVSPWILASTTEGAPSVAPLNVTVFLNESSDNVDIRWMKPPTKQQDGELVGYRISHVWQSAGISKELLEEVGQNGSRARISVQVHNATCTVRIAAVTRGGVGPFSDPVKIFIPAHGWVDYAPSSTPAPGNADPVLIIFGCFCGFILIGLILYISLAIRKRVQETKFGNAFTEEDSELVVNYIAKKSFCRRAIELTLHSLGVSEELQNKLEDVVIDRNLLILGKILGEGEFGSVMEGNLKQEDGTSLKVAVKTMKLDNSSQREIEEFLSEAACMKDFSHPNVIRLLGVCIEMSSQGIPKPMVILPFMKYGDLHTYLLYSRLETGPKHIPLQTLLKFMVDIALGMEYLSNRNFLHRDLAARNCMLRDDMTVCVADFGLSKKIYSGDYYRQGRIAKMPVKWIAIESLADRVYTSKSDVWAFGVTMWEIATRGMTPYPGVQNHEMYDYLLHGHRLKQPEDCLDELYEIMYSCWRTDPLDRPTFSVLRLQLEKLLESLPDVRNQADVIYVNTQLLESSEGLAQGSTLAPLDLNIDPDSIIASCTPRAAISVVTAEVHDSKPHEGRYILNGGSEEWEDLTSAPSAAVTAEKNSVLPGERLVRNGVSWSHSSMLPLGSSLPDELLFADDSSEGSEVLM
The test can be described thus: condition: only in OSI-resistant derivative cells (H4006-OSIR); co-IP; serum-starved OSI-resistant cells (H4006-OSIR), with or without 10 min GAS6 or EGF, treated with pervanadate; MERTK or EGFR immunoprecipitated from cell lysates, EGFR and MERTK detected by immunoblot.

In test [2] the target is T1, MERTK (human (endogenous in H4006)). The test can be described thus: co-IP; serum-starved parental cells (H4006-par), with or without 10 min GAS6 or EGF, with or without 2 h MRX-2843 and/or OSI, treated with pervanadate; MERTK or EGFR immunoprecipitated from cell lysates, EGFR and MERTK detected by immunoblot.

These are yes or no findings as the source states them, for the method shown. In cells and extracts the contact can be indirect. Some binding calls cover weakened binding; strength is not graded here.

Turning to “EGFR (E746-A750del, as carried by H4006 cells) (from UniProt P00533 25-1210) (receptor)”, the binding entry in test [1] was “no binding”; in test [2], “binds”.
